± gives the standard deviation of the averaged measurements. This is one part of the list. Repeats in this data set agree poorly, so a single value says little.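 Cell counts came from imaging DAPI-stained nuclei, excluding as dead any cells lacking phalloidin-stained cytoplasm. Counts per well were normalized to the median vehicle-well count on that plate, and the values were averaged over two replicate plates.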
Tested on: OVCAR8
Experiment: cell count relative to DMSO vehicle (fold change); higher = more surviving senescent cells (less killing)
Conditions: senescence inducer: cisplatin 10 µM 48 h, then 6 d recovery (CP senescent), exposure time 24 h

Row | SMILES | cell count (compound dose 1 µM) | cell count (compound dose 5 µM)
1 | O=C(CCCCCN1C(=O)c2cccc3cccc(c23)C1=O)NO [Scriptaid] | 0.73 ± 0.17 | 0.489 ± 0.023
2 | CCN(CC)C(=S)SSC(=S)N(CC)CC | 0.442 ± 0.2 | 0.0705 ± 0.054
3 | CCCn1/c(=N/C(=O)c2cccc(C(N)=O)c2)[nH]c2ccccc21 [Takinib] | 1.06 ± 0.18 | 0.761 ± 0.064
4 | CCOC(=O)C1=C(C)NC(C)=C(C(=O)OCC)C1c1ccccc1/C=C/C(=O)OC(C)(C)C [Lacidipine] | 1.1 ± 0.14 | 0.691 ± 0.19
5 | Cc1nc2cccc(N)c2c(=O)n1C1CCC(=O)NC1=O (centres undefined) [Avadomide] | 0.866 ± 0.37 | 1.22 ± 0.16
6 | O=S(=O)(c1ccccc1)N(CC(F)(F)F)c1ccc(C(O)(C(F)(F)F)C(F)(F)F)cc1 | 1.06 ± 0.17 | 0.919 ± 0.13
7 | Cc1cc(N2CCOCC2)cc2[nH]c(-c3c(NC[C@@H](O)c4cccc(Cl)c4)cc[nH]c3=O)nc12 | 0.708 ± 0.12 | 0.495 ± 0.061
8 | CS(=O)(=O)N1CCN(Cc2cc3nc(-c4cccc5[nH]ncc45)nc(N4CCOCC4)c3s2)CC1 [Pictilisib (GDC-0941)] | 0.776 ± 0.0078 | 0.682 ± 0.042
9 | Cc1cc(O)c(C(=O)CCC(C)C)c(=O)o1 [Pogostone] | 1.21 ± 0.089 | 0.815 ± 0.23
10 | CC1(C)SCCN(S(=O)(=O)c2ccc(OCC#CCO)cc2)[C@H]1C(=O)NO [Apratastat] | 1.14 ± 0.061 | 0.883 ± 0.08
11 | Nc1nc2c(ncn2COCCO)c(=O)[nH]1 | 1.32 ± 0.16 | 0.907 ± 0.15
12 | CC1(C)C2=CCCC(C)(C)[C@]23CC[C@H]1C3 [Isolongifolene] | 0.985 ± 0.029 | 0.93 ± 0.16
13 | COc1ccc(C(=O)CC(=O)c2ccc(C(C)(C)C)cc2)cc1 | 1.01 ± 0.12 | 0.794 ± 0.19
14 | COc1ccc(C(=O)c2ccccc2)c(O)c1 | 1 ± 0.14 | 0.87 ± 0.36
15 | CC(C)(C)c1ccc(C(=O)NC(=S)Nc2ccc(N)cc2)cc1 [Tenovin-3] | 1.05 ± 0.014 | 1.04 ± 0.014
16 | CNC(=O)[C@@H](c1ccccc1)N1CCc2cc(OC)c(OC)cc2[C@@H]1CCc1ccc(C(F)(F)F)cc1 [Almorexant] | 0.959 ± 0.05 | 0.57 ± 0.017
17 | CCCCCCCC/C=C1\C=C(C(F)(F)F)c2cc(O)c(O)cc21 | 0.674 ± 0.068 | 0.023 ± 0.016
18 | O=C(c1cc(-c2cc3c(cc2C(=O)N2Cc4ccccc4C[C@H]2CN2CCOCC2)OCO3)n2c1CCCC2)N(c1ccccc1)c1ccc(O)cc1 | 0.917 ± 0.12 | 0.441 ± 0.052
19 | CNC(=O)c1ccccc1Nc1nc(Nc2ccc(N3CCOCC3)cc2OC)ncc1Cl | 0.98 ± 0.043 | 0.929 ± 0.15
20 | COc1cc(C2CC(c3ccccc3)=NN2C(N)=S)cc(OC)c1OC (centres undefined) | 0.8135 ± 0.0035 | 0.858 ± 0.12
21 | CCOC(=O)c1cnc(C#Cc2ccc3c(c2)C(C)(C)CC[S+]3[O-])nc1 (centres undefined) | 1.2 ± 0.2 | 0.59 ± 0.0064
22 | Nc1nc(Cl)nc2c1ncn2[C@H]1C[C@H](O)[C@@H](CO)O1 [Cladribine] | 1.099 ± 0.0021 | 0.775 ± 0.42

Nothing new here: two of the compounds above.
Row | SMILES | cell count (compound dose 1 µM) | cell count (compound dose 5 µM)
6 | O=S(=O)(c1ccccc1)N(CC(F)(F)F)c1ccc(C(O)(C(F)(F)F)C(F)(F)F)cc1 | 1.06 ± 0.17 | 0.919 ± 0.13
7 | Cc1cc(N2CCOCC2)cc2[nH]c(-c3c(NC[C@@H](O)c4cccc(Cl)c4)cc[nH]c3=O)nc12 | 0.708 ± 0.12 | 0.495 ± 0.061

Source: the supplement of paper PMC12462457
